Results are given in words; binding and its absence hold for the method and conditions named. Some results given as binding are weak or reduced against the parent protein; the word gives no strength.
Target: human CTLA-4 expressed on cells (293-hCTLA-4 cells; CTLA-4-expressing CHO-K1 cells) (human) (UniProt P16410)
Assay: flow cytometry on 293F-hCTLA-4 cells

Sequences of proteins named here, by UniProt entry; tags and fusion partners are left off. A change or cut given only in a name is not applied to a line headed by its entry.
UniProt P16410: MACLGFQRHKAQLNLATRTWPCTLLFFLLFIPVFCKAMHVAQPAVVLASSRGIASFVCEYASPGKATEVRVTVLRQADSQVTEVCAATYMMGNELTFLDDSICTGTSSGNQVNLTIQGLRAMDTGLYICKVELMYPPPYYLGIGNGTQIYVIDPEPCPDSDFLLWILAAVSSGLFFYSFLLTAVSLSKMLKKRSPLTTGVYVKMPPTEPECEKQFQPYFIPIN

B1: CL20′-eA (antibody, human IgG1, V domains shown)
VH: EVQLVESGGGLVQPGGSLRLSCAASGFTFSNYWMHWVRQAPGKGLVWVSRINSDGSNTTYADSVKGRFTISRDNAKNTLYLQMNSLRAEDTAVYYCARWFGEHYYGMDVWGQGTTVTVSS
binding: binds
